In this experiment the target is TMPRSS2 on MCF-7 cells (human (endogenous in MCF-7)) (UniProt O15393). Description: confocal fluorescence microscopy of cell surface binding; only the binder purified.

By UniProt entry, the sequences of proteins in these tests, tags left out.
UniProt O15393: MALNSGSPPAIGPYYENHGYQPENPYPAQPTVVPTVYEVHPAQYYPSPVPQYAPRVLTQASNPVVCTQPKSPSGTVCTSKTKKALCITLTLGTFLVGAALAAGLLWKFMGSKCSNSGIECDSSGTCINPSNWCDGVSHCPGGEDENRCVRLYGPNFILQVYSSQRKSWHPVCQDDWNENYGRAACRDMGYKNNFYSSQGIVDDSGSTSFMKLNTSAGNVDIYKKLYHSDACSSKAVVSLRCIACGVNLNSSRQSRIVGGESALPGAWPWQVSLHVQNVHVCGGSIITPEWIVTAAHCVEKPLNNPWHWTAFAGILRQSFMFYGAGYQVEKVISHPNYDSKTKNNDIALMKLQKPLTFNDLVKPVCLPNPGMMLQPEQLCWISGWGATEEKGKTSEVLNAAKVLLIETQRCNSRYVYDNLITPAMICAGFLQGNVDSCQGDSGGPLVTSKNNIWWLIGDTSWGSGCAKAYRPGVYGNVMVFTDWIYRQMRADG

Results are given in words; binding and its absence hold for the method and conditions named. Some binding calls cover weakened binding; strength is not graded here. Tags and fused reporters may be left off the sequences shown.

B1: GFP-TcsH^2210–2618 (WT) (domain or fragment, UniProt M9ZTT7 2210-2618)
chain: AITGWQVIDDKKYYFNSNTAVADTNLCTINNEKYYFSYDGILQNGYITIGRLNFYFDSNNDSKMTTGVFKGPNGFEYFAPANTYNNNLEGQAIVYQNKFLTINGKKYYFDNKSKAVTGWQTIDGKKYYFNPNTAIAAMGWQAIDGKKYYFNPNTAIATTGWQTIDGKKYYFNPNTAIAATGWQAIDGKKYYFNPNTATTSIGYTTINSKNFYFNNDGIMQLGVFKGPDGFEYFAPANTHNNNEEGQSITYQNKFLIFNEDVYYFDSSSKAVTGWRTIDDHRFYFEPNTGIGANGYKTLDGKNFYFRNGLPQFGVFKGPDGFEYFAPANTHNNNEEGQSITYQNKFLVFLGNRYYFDSSSKAVTGWQTINGNTYYFMPDTAIAAAGGFFTIDGAIYFFGIDGVKQPGIYG
Consider B1, for which the binding entry is reported as “binds”.

The values are drawn from article PMC10912200.
